Earlier results, collected in patent US7910544B2, “Conformationally constrained parthyroid hormone (PTH) analogs” (The General Hospital Corporation, priority 2003, dated 2011).
Some of these results come from one statement about several compounds together.

Sequences of proteins named here, by UniProt entry; tags and fusion partners are left off. A change or cut given only in a name is not applied to a line headed by its entry.
UniProt P01270: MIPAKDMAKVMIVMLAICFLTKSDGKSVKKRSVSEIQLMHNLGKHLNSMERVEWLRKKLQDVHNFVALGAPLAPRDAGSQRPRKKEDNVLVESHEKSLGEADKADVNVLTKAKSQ

Legend:
P1R [1] = target: T1, P1R (Homo sapiens, UniProt Q03431); settings: literature; read-out: binding affinity Kd; cited from earlier work
T1 sequence (Q03431 27-593): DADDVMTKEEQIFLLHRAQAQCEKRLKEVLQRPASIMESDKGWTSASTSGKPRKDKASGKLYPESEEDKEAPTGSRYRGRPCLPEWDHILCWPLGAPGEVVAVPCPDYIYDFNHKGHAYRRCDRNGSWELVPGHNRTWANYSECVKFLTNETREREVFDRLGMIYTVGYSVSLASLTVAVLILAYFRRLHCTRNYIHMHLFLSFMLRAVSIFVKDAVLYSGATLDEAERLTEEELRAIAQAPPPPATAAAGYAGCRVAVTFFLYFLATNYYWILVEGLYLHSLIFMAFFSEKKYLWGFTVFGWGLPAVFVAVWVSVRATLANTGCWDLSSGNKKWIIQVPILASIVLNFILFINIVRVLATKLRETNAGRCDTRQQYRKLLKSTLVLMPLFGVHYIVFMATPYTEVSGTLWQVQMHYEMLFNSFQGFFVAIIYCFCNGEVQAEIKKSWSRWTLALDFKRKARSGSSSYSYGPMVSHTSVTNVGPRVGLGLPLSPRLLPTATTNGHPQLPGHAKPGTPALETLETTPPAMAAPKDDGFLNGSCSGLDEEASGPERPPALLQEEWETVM

P1R [2] = target: T1, P1R; settings: literature (Luck et al. 1999); read-out: cAMP-signaling potency EC50; cited from earlier work

| Substance | Kd (P1R [1]) [µM] | EC50 (P1R [2]) [µM] |
| --- | --- | --- |
| PTH(1-11): short N-terminal fragment of PTH (SVSEIQLMHNL; Parathyroid hormone; UniProt P01270 32-42, looked up, fragment) | > 100 | ≥ 100 |
| PTH(1-14): short N-terminal fragment of PTH | > 100 | ≥ 100 |
